{"source": "patent US10723746B2", "about": "“Oxazolidinone-quinolone hybrid antibacterials for the parenteral treatment or prophylaxis of bacterial diseases” (MORPHOCHEM AKTIENGESELLSCHAFT FÜR KOMBINATORISCHE CHEMIE, priority 2013, dated 2020)", "key": {"[1]": {"assay": "First-in-Man study: iv. bolus or 20 min infusion of Compound 1", "format": "in vivo", "details": "humans; iv. bolus of Compound 1", "method": "Volunteers were administered doses of up to 3.0 mg/kg body weight (BW) of Compound 1 given as iv. bolus injection of 2 min duration. Additionally, doses of 1.5 and 3.0 mg/kg BW of Compound 1 were administered as a short-term infusion of 20 min duration, resulting in infusion rates of 4.5 and 9.0 mg/(kg BW×h), respectively."}, "[2]": {"assay": "Pharmacokinetics after iv. bolus injection of Compound 1 in animals", "details": "2 min iv. bolus of Compound 1, first sampling time"}}, "note": "The name of at least one read-out is uncertain.", "data": [{"compound": "CC(=O)NC[C@H]1CN(c2ccc(OCC3(O)CCN(c4cc5c(cc4F)c(=O)c(C(=O)O)cn5C4CC4)CC3)c(F)c2)C(=O)O1", "note": "[Compound 2, 7-(4-{4-[(5S)-5-(Acetylamino-methyl)-2-oxo-oxazolidin-3-yl]-2-fluoro-phenoxymethyl}-4-hydroxy-piperidin-1-yl)-1-cyclopropyl-6-fluoro-4-oxo-1,4-dihydro-quinoline-3-carboxylic acid]", "values": [{"measurement": "Time at which Cmax of the Drug was observed after iv. bolus administration of the Prodrug", "setting": "[1]", "value": 10, "unit": "min"}, {"measurement": "Time at which Cmax of the Drug was observed after the end of the iv. bolus injection", "setting": "[2]", "value": "≤ 5", "unit": "min"}]}]}
